One compound from PubChem BioAssay AID588810 (Broad Institute, 2011) can be followed below.

Protein sequences, listed by entry. Tags and fused reporters are not part of them. Lines headed by an entry give the natural chain unless they say otherwise; changes in a name come on top.
UniProt Q61009: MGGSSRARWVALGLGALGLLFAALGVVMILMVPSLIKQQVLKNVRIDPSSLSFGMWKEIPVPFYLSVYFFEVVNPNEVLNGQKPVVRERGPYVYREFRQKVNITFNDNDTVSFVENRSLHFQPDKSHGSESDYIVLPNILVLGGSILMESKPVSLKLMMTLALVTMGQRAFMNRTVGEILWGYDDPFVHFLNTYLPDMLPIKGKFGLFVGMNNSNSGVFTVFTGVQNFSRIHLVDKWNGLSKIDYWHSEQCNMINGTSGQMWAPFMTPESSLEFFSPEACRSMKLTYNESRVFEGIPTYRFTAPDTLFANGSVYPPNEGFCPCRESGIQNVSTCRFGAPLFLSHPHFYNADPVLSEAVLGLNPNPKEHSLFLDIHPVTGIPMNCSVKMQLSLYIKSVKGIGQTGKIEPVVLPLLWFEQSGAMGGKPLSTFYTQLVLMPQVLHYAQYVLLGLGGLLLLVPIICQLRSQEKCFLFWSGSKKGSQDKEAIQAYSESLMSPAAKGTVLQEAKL

This experiment addresses Scavenger receptor class B member 1 (Mus musculus) (UniProt Q61009). The experiment can be described thus: increase of Alexa488-HDL binding at mSR-BI cells – ldlA[mSR-BI] cells, powder samples, set 2, orthogonal assay for SR-BI HDL uptake inhibitor project, dose response (AID 588810). Conditions: ldlA[mSR-BI] CHO cells, Alexa488-HDL binding fluorescence, 3 h; at 35 µM (top of the series). In a few lines: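 Material: ldlA CHO cells expressing mouse SR-BI (ldlA[mSR-BI]) | Medium: F12 with 0.5% fatty-acid-free BSA, 25 mM HEPES pH 7.4 | Reagent: Alexa488-HDL with apolipoprotein-linked dye, 10 µg/mL | Dosing: Compound tested as dose-response series | Schedule: Cells seeded one day ahead, 3 h HDL-compound exposure at 37 °C | Signal: Bottom-read fluorescence, washed wells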

The other results are listed elsewhere or left out. Entries without a call are filed as inconclusive in the source.

In turn, `CCCCCCC1CCC/C1=N\NC(N)=S` (stereo unspecified) showed an activity increase (HDL binding) of 99.5%.
